From PubChem BioAssay AID2685 (National Center for Advancing Translational Sciences (NCATS), 2010)
This is one part of the list. Shown are side measurements of this screen, not its main read-out; they come without a call. Compounds called inactive in the main read-out are mostly missing here. Words in brackets tell the shape of the fitted curve; partial curves, single points and poor fits give uncertain potencies.

Assay: qHTS Assay for Lipid Storage Modulators in Drosophila S3 Cells;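 as to cell number change: cells counted by Cell Tracker Red CMTPX staining in the red channel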
Conditions: BODIPY lipid droplet fluorescence, 18-24 h; for cell number change: measured here: cell count max response, cells fed with added oleic acid
Outline: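 Drosophila S3 cells got compounds at several concentrations plus oleic acid (400 uM solution). Laser-scanning cytometry with 488 nm excitation read lipid droplets at 500-530 nm and cells at 575-640 nm. Percent activity was relative to 20 uM Triacsin C.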

[1] = measured here: lipid fluorescence (Fed channel) AC50, cells fed with added oleic acid
[2] = measured here: cell number channel AC50, cells fed with added oleic acid

Row | SMILES | cell number change | AC50 [1] | AC50 [2]
1 | O=c1[nH]c2ccc(S(=O)(=O)Nc3ccc(Cl)cc3)cc2o1 | 4.91% | 23.1 µM [rising, partial curve] | –
2 | Cc1c(C(=O)NCC2COc3ccccc3O2)oc2ccc(S(=O)(=O)N3CCOCC3)cc12 (stereo not drawn) | – | – | 2.59 µM [rising, partial curve, poor fit]
3 | CCc1cc(=O)oc2c(C)c(OC(C)C(=O)NC3CC(C)(C)NC(C)(C)C3)ccc12 (stereo not drawn) | 17.1% | 10.3 µM [rising, partial curve, poor fit] | –
4 | O=C(NCCc1ccccc1)Nc1ccc(Cl)cc1 | 14.8% | 0.411 µM [falling, partial curve] | –
5 | COc1ccc(NC(=O)COc2coc(CN3CCCc4ccccc43)cc2=O)cc1 | -54.5% | – | 29.1 µM [falling, single point]
6 | COc1cccc(C(=O)N2CCN(S(=O)(=O)Cc3ccccc3)CC2)c1 | 51.1% | 0.116 µM [rising, single point] | 6.51 µM [rising, partial curve]
7 | CC(=O)C1=C(O)CC(C)(C)CC1=NCCc1nc2ccccc2[nH]1 | -116% | 29.1 µM [falling, single point] | 29.1 µM [falling, single point]
8 | O=C(NNC(=S)NC(=O)c1ccccc1)c1ccc([N+](=O)[O-])cc1 | -16.1% | 0.13 µM [rising, full curve, poor fit] | –
9 | O=C(COc1ccc(S(=O)(=O)NCc2ccccc2)cc1)NCc1cccnc1 | 5.65% | 5.8 µM [falling, full curve, poor fit] | –
10 | Clc1cc(Br)ccc1OCCCn1ccnc1 | – | 4.11 µM [rising, full curve] | 0.651 µM [rising, partial curve, poor fit]
11 | CCC(C)N(C(=O)COc1ccccc1C(=O)NCc1ccccc1)C1CCS(=O)(=O)C1 (stereo not drawn) | 20.5% | 6.51 µM [rising, single point] | –
12 | Cc1ccc(SCC(=O)NN2C(=O)c3ccccc3C2=O)cc1 | 21.9% | – | –
13 | CC1CC(C)CN(CC(C)(C)NS(=O)(=O)c2ccc(Cl)cc2)C1 (stereo not drawn) | 24.9% | 18.4 µM [rising, single point] | 4.61 µM [rising, full curve, poor fit]
14 | Cc1cc(NS(=O)(=O)c2ccc(Nc3nc(-c4ccc(C)c(C)c4)cs3)cc2)no1 | 2.22% | 3.66 µM [rising, single point] | –
15 | Cn1c(=O)c2cc(S(=O)(=O)NC(C(=O)NCc3ccccn3)c3ccccc3)ccc2n(C)c1=O (stereo not drawn) | 1.96% | 4.61 µM [rising, full curve] | –
16 | Cc1ccc(Cn2nc(C)c(NC(=O)c3noc4c3CCCCC4)c2C)cc1 | -6.27% | 14.6 µM [falling, partial curve, poor fit] | –
17 | O=C(CSCc1c(F)cccc1Cl)NNC(=S)NC1CCCCC1 | 41.8% | 23.1 µM [rising, single point] | 29.1 µM [rising, single point]
18 | CCOc1ccccc1N(CC(=O)NCC1CCCO1)C(=O)CCC(=O)Nc1ccccn1 (stereo not drawn) | 18.2% | 10.3 µM [rising, partial curve, poor fit] | –
19 | O=C(Nc1ccncc1)C1CCN(S(=O)(=O)c2ccccc2)CC1 | -15.5% | 6.51 µM [falling, single point] | –
20 | O=C1c2ccccc2C(=O)N1c1ccc(S(=O)(=O)N2CCN(c3ccccc3)CC2)cc1 | -22.7% | 29.1 µM [falling, single point] | 0.206 µM [falling, full curve, poor fit]

Whole records, looked up by structure. Order of values: cell number change	AC50 [1]	AC50 [2]
Cn1c(=O)c2cc(S(=O)(=O)NC(C(=O)NCc3ccccn3)c3ccccc3)ccc2n(C)c1=O (stereo not drawn) reads 1.96%	4.61 µM [rising, full curve]	–
O=C(NCCc1ccccc1)Nc1ccc(Cl)cc1 reads 14.8%	0.411 µM [falling, partial curve]	–

Next part:

Row | SMILES | cell number change | AC50 [1] | AC50 [2]
21 | Cc1cccc(OCC(=O)Nc2ccc3c(C)cc(=O)oc3c2)c1 | -4.66% | 0.231 µM [rising, full curve, poor fit] | –
22 | CCOc1ccc(-c2[nH]ncc2-c2ccc(Cl)cc2)c(O)c1 | -69.5% | 18.4 µM [falling, single point] | 16.4 µM [falling, single point]
23 | CCOc1ccc(NC(=O)c2cc(S(=O)(=O)N3CCOCC3)cn2C)cc1 | 15.6% | 0.58 µM [rising, partial curve, poor fit] | –
24 | C=CCC(=O)NC1CC(C)(C)Cc2c1cnn2-c1ccccc1C (stereo not drawn) | 17.4% | – | –
25 | Cc1ccc(CNC(=O)C2CCC(CNc3c(N4CCOCC4)c(=O)c3=O)CC2)cc1 (stereo not drawn) | 1.94% | – | –
26 | CCCCCc1nnc(NC(=O)c2ccc(=O)n(C)n2)s1 | 29.6% | – | –
27 | O=C(C1CCCN(C2CC(=O)N(c3ccc(F)cc3)C2=O)C1)N1CCCC1 (stereo not drawn) | 3.47% | 29.1 µM [rising, single point] | –
28 | Cc1c(-c2ccco2)[n+](=O)c2c(n1[O-])CCC2 | -13.6% | – | –
29 | Cc1ccc(NC(=O)CCNC(=O)c2ccc(Cl)cc2)cc1F | – | – | 0.461 µM [rising, partial curve, poor fit]
30 | COc1ccc(C(C(=O)NC2CCCC2)N(C(=O)c2ccoc2C)c2ccc(C)cc2)cc1 (stereo not drawn) | -47.8% | 3.66 µM [falling, full curve] | 7.31 µM [falling, single point]
31 | Cc1nnc2c3ccccc3c(-c3ccc(O)cc3)nn12 | 57.2% | 7.31 µM [rising, partial curve] | 6.51 µM [rising, full curve]
32 | COc1ccc(N2C(=O)CCC(C(=O)N(C)C3CCCCC3)C2c2ccc(OC)c(OC)c2)cc1 (stereo not drawn) | 7.93% | – | –
33 | COC(=O)C1=C(C)N(c2ccc(Cl)cc2)/C(=C/c2ccc(O)cc2)C1=O | -2.68% | – | –
34 | NCCc1c(-c2ccccc2)n(-c2ccccc2)c2ccccc12 | -2.77% | – | –
35 | Nc1nnc(SCC(=O)NNC(=O)c2ccc(Cl)cc2)s1 | -4.9% | 6.51 µM [rising, single point] | –
36 | CCC(C)NC(=O)c1ccc(NC(=O)C2CCCO2)cc1 (stereo not drawn) | – | – | 3.66 µM [falling, single point]
37 | O=C(c1ccc(Br)o1)N1CCN(c2ccc3nnc(-c4ccc(F)cc4)n3n2)CC1 | -7.22% | 1.3 µM [rising, full curve] | –
38 | O=C(CNC(=O)c1ccco1)NCC(=O)OCc1ccc(C(=O)Oc2ccc(Cl)cc2)cc1 | -0.475% | 0.58 µM [rising, single point] | –
39 | CCC(=O)Nc1ccc(C(=O)NNC(=O)C2CCCCC2)cc1 | 8.5% | 29.1 µM [rising, single point] | –
40 | CCc1ccccc1NC(=O)CSc1nnc(C2CC2)n1CC1CCCO1 (stereo not drawn) | 2.25% | 11.6 µM [falling, single point] | –

Row | SMILES | cell number change | AC50 [1] | AC50 [2]
41 | O=C(CN1C(=O)NC2(CCCCCCC2)C1=O)N1CCN(C(=O)c2ccco2)CC1 | 4.67% | – | –
42 | O=C(O)CCc1ccc(-c2cccs2)n1NC(=O)c1ccc(Cl)cc1Cl | -0.752% | 0.082 µM [rising, full curve, poor fit] | –
43 | CCOC(=O)C(Cc1cc(C(C)=O)ccc1OC(C)C)C(=O)OCC | -7.89% | – | –
44 | CCN1C(=O)[C@@H]2[C@@H](c3ccc(-c4ccc(C(C)=O)cc4)c(OC)c3)N3CCCC[C@@]3(C(=O)OC)[C@@H]2C1=O | -4.16% | 1.64 µM [falling, partial curve, poor fit] | –
45 | Cc1onc(-c2ccccc2)c1-c1ccnn1S(=O)(=O)c1ccc(Cl)cc1 | 15% | 0.82 µM [rising, partial curve, poor fit] | –
46 | N#CC(c1ccccc1)c1ccc(C(=O)c2ccc(F)cc2)cc1 (stereo not drawn) | -30.5% | 0.103 µM [falling, full curve, poor fit] | 13 µM [falling, single point]
47 | COc1cc(CNCc2cccs2)ccc1OCc1cccs1 | 21.4% | 0.164 µM [rising, partial curve, poor fit] | –
48 | CC[C@@H](C)[C@H](NC(=O)Cc1c(C)c2cc3c(C)c(C)oc3c(C)c2oc1=O)C(=O)O | 15.4% | 13 µM [rising, single point] | –
49 | CC[n+]1c(/C=C2\Sc3ccccc3N2C)ccc2cccc(C)c21 | -102% | 0.231 µM [falling, full curve, poor fit] | 2.31 µM [falling, partial curve]
50 | COc1cccc(CCN2CCC(CNS(=O)(=O)c3cc(-c4cc(C)no4)ccc3OC)CC2)c1 | 27.5% | 29.1 µM [rising, single point] | –
51 | CCCCN(CCCC)C1=Nc2ccccc2N/C1=C(/C#N)C(=O)OCC | -43.2% | 18.4 µM [falling, partial curve, poor fit] | 20.6 µM [falling, single point]
52 | CN(C)CCCNc1ccc(-c2n[nH]c(=O)c3ccccc23)cc1[N+](=O)[O-] | 0.88% | – | –
53 | CNc1ccccc1C(C)(C)c1cc(C)[nH]n1 | 20.8% | 29.1 µM [falling, single point] | –
54 | COc1ccc(/C(N)=N/OC(=O)C2CCC(=O)N2S(=O)(=O)c2ccc(C)cc2)cc1 (stereo not drawn) | 36% | 0.103 µM [rising, full curve, poor fit] | 8.2 µM [rising, partial curve]
55 | COCCSc1nnc(NC(=O)c2cc(OC)c(OC)cc2[N+](=O)[O-])s1 | 119% | – | –
56 | COc1nc(NCCO)nc(Nc2cc(Cl)ccc2OC)n1 | – | 29.1 µM [falling, single point] | –
57 | CCn1c(-c2ccc(C)cc2)n[nH]c1=S | 7.98% | 6.51 µM [rising, partial curve] | –
58 | COc1cc(NS(=O)(=O)c2ccc(NC(=O)c3ccc(S(=O)(=O)N4CCCC4)cc3)cc2)ncn1 | -61.6% | 20.6 µM [falling, single point] | 29.1 µM [falling, single point]
